The target in the experiment is T1, adipose triglyceride lipase (ATGL) (rat (endogenous in primary epididymal adipocytes)) (UniProt P0C548).
T1 sequence: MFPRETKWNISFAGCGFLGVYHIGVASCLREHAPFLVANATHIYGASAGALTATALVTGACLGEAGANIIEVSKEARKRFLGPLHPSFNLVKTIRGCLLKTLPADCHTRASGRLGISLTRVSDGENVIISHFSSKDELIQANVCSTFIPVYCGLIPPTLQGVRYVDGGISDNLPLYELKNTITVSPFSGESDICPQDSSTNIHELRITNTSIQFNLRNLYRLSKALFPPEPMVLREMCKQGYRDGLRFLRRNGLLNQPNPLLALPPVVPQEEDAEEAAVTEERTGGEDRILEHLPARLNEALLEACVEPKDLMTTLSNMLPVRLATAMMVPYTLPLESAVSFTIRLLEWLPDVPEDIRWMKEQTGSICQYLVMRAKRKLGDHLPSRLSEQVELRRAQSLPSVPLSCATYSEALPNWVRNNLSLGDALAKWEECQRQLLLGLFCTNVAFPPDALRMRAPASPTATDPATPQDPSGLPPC
Description: co-IP; pellet fraction lysate of primary adipocytes from sedentary control (CG) and habitual exercise (EG) rats, pre-cleared with rabbit normal IgG and protein A/G agarose; primary antibody to HSL or ATGL with protein A/G agarose beads at 4°C overnight; beads washed 4 times in ice-cold PBS; immunoblotting. A general note: Immunoblotting shows a protein as a band on a membrane.

These are yes or no findings as the source states them, for the method shown. Binding seen in cells or lysates may run through a third protein. Some results given as binding are weak or reduced against the parent protein; the word gives no strength.

B1: comparative gene identification-58 (CGI-58) (protein, UniProt Q6QA69 1-351)
chain: MKAMAAEEEVDSADAGGGSGWLTGWLPTWCPTSTSHLKEAEEKMLKCVPCTYKKEPVRISNGNSIWTLMFSHNMSSKTPLVLLHGFGGGLGLWALNFEDLSTDRPVYAFDLLGFGRSSRPRFDSDAEEVENQFVESIEEWRCALRLDKMILLGHNLGGFLAAAYSLKYPSRVSHLILVEPWGFPERPDLADQERPIPVWIRALGAALTPFNPLAGLRIAGPFGLSLVQRLRPDFKRKYSSMFEDDTVTEYIYHCNVQTPSGETAFKNMTIPYGWAKRPMLQRIGGLHPDIPVSVIFGARSCIDGNSGTSIQSLRPKSYVKTIAILGAGHYVYADQPEEFNQKVKEICHTVD
Turning to B1, the binding result is given as “binds”.

The record behind these values is publication PMC3397928.
